Primary screen of a compound library

Source: ChEMBL document CHEMBL3988442, “University of Dundee, Small-Polar-MMV Screening Library” (2021).

The filed quantity is “Percent Effect” (%). How 0% and 100% were set is not recorded. Most values in the screen are low, and negative values occur. Compounds were drawn at random from those tested, without regard to their results. A dash means the value is not listed here; it may have been measured.

Mtb growth Cornell: 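Whole-cell assay for inhibitors of Mycobacterium tuberculosis growth, labelled Cornell in the record; the read-out is not stated. The concentration is filed as 10 mM, unlikely as a test dose, so the dose is not known. The record gives no direction; compounds strong in two other growth screens of this library score well above the rest, so higher reads as stronger inhibition. About 53,000 compounds were tested under these conditions; 1.7% (about 900) showed 50% or more at least once.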
Mtb heat-shock: 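Assay on Mycobacterium tuberculosis, filed only as a heat shock assay from Cornell; the read-out is not stated. The concentration is filed as 10 mM, unlikely as a test dose, so the dose is not known. Direction is inferred from retests: higher values go with stronger inhibition. Size under these conditions: about 69,000 compounds, about 930 of them at 50% or above in at least one test.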

| # | Compound | Mtb growth Cornell | Mtb heat-shock |
|---|---|---|---|
| 1 | `[H][C@]12CN(CCOC)C(=O)[C@@]1([H])CN(S(=O)(=O)c1cccs1)C2` | - | 11.6 |
| 2 | `COc1ccc2nc3n(c2c1)[C@@H](CNC(=O)c1cncnc1)COC3` | 13.95 | -23.55 |
| 3 | `O=C(Nc1ccc(Cl)cn1)c1nn(C2CCS(=O)(=O)C2)c2c1CCCC2` (centres unmarked) | 20.11 | 11.75 |
| 4 | `Cc1ccc(S(=O)(=O)NC(=O)CCc2ccccc2)cc1N(C)C` | 24.85 | 6.237 |
| 5 | `Cc1ccc(S(=O)(=O)NC(=O)c2cccc3c2OCCO3)c(C)c1` | 3.044 | -14.86 |
| 6 | `O=C(c1ccc(OCC2CC2)nc1)N1CCCC(n2ccnc2)C1` (centres unmarked) | 18.76 | 42.1 |
| 7 | `O=C(O)C(F)(F)F.O=C(O)C(F)(F)F.O=C(O)C(F)(F)F.O=C(O)C(F)(F)F.[H][C@@]12CN(Cc3ccccn3)C[C@]1([H])OCCN2CCN(C)C` | -9.665 | -34.4 |
| 8 | `Cc1noc(C)c1CNc1c(N2CCCC2)cccc1N1CCCC1` | - | 65.01 |
| 9 | `CC(=O)c1ccc(Nc2nc(N)nc3c2nc(C)n3C)cc1` | 11.87 | 10.63 |
| 10 | `CC(C)CNc1cc(-c2c[nH]nc2C2CCN(C(=O)C3CC3)C2)ccn1` (centres unmarked) | 30.66 | 8.55 |
| 11 | `CCc1nccn1CC(=O)N1CCN(C2CCc3ccccc3C2)CC1` (centres unmarked) | -6.69 | 3.256 |
| 12 | `COc1cccc(N2CCN(CC[C@H](O)c3ccccc3)CC2=O)c1` | - | -12.2 |
| 13 | `CCCN1CCC(Nc2cc(-c3ccccc3)ccc2OC)CC1` | - | 39.74 |
| 14 | `CCOc1ccc(CC(=O)N2CCN(c3nccn3C)CC2)cc1.Cl` | 7.461 | -3.204 |
| 15 | `CS(=O)(=O)N1CCC2(CC1)CC(NCc1ccccn1)c1ccccc12` (centres unmarked) | 11.37 | -9.203 |
| 16 | `C(=C\c1ccc(CN2CCCC2)cn1)/c1ccccc1` | 47.37 | 31.09 |
| 17 | `Fc1cccc2c1CCC2NCc1ccc(N2CCOCC2)cc1` (centres unmarked) | -1.101 | 12.16 |
| 18 | `CN(C)S(=O)(=O)N1CCCCC1CCc1ccc(O)cc1` (centres unmarked) | -11.48 | -36.85 |
| 19 | `COc1ccc2cc(NC(=O)CCNc3ncccn3)cnc2c1` | -7.502 | 7.208 |
| 20 | `CN1CCC(Oc2ccc(-n3ccnc3-c3nccn3C)cc2)CC1` | - | -7.988 |
| 21 | `CC(=O)N(C)c1nc(CN2CCCCC2Cn2cncn2)cs1` (centres unmarked) | -33.62 | -17.2 |
| 22 | `Cc1ccccc1OCCSc1nnc(CC2CCS(=O)(=O)C2)n1C` (centres unmarked) | - | -8.537 |
| 23 | `CC(C)c1nc(CN(C)C(=O)C(O)c2ccc(Cl)cc2)cs1` (centres unmarked) | 20.65 | 0.2214 |
| 24 | `COc1ccccc1NC(=O)NCc1cn[nH]c1` | - | 15.96 |
| 25 | `CC(=O)N1CCOC(CCc2cc(-c3c(C)noc3C)ncn2)C1` (centres unmarked) | 41.45 | -6.726 |
| 26 | `Cc1cc(N(C)Cc2ccsc2)n2nc(C)c(C)c2n1` | 80.58 | 86.91 |
| 27 | `Cc1cccc(N2CCN(C(=O)C3CC4(CCNCC4)CN3)CC2)n1` (centres unmarked) | -39.7 | -18.33 |
| 28 | `CC(c1cccc(-c2cn(Cc3ccoc3)nn2)c1)N(C)C` (centres unmarked) | -16.81 | -5.941 |
| 29 | `Cc1cccc(C(=O)NC(C)CN2CCCC2=O)n1` (centres unmarked) | - | -49.88 |
| 30 | `O=C(NCC1CCCO1)Nc1nnc(C(F)(F)F)s1` (centres unmarked) | 1.87 | -12.06 |
| 31 | `COc1c(F)cc(NC(=O)NCc2nncn2C2CC2)cc1F` | 16.55 | 9.198 |
| 32 | `O=C(COc1cccc(F)c1)N1CCCCC1c1ccn2ccnc2n1` (centres unmarked) | 3.414 | -13.89 |
| 33 | `Cc1nc(Nc2ccccn2)cc(N2CCN(S(C)(=O)=O)CC2)n1` | -37.11 | -15.43 |
| 34 | `O=C(Nc1cccc2c1CCCC2)C1CCCN1c1nccs1` (centres unmarked) | -2.486 | 50.83 |
| 35 | `Cc1cccc(-c2nc(N)nc3c2CN(C(=O)C2CCCC2)C3C)c1` (centres unmarked) | 4.099 | -1.656 |
| 36 | `Cl.Cl.O[C@@H]1C[C@@](CNCC2CC2)(COc2cccnc2)C[C@@H]1O` | -6.046 | -42.76 |
| 37 | `Cc1csc(CNC(=O)NCC2(c3ccc4c(c3)OCO4)CC2)n1` | 7.824 | -0.8987 |
| 38 | `Fc1cccc(N2CCc3ncnc(C4CC4)c3CC2)c1` | 8.201 | -1.532 |
| 39 | `CCc1nnc(CN2CCC(C3CCCCCN3C(C)=O)CC2)o1.Cl` (centres unmarked) | -17.18 | 23.3 |
| 40 | `CN1CC2(CCN(C(=O)c3ccc(=O)n(C)c3)CC2)CC1=O` | -19.54 | 2.587 |
| 41 | `CN(C)CCCNc1ncnc2cccc(F)c12` | -47.58 | -11.17 |
| 42 | `CO[C@H]1CCN(C(=O)c2cc(C)on2)C[C@@H]1Cc1ccccc1` | -0.009774 | -14.37 |
| 43 | `CNC(=O)Nc1cc(-c2ccc(Br)cc2)nn1CCO` | 1.446 | -9.195 |
| 44 | `c1ccc(CN2CCC3(COCc4cnc(NCC5CC5)nc43)C2)cc1` (centres unmarked) | 4.499 | -4.704 |
| 45 | `CN(C)c1cc(C2CCCN2Cc2ccccc2OCC(=O)O)ccn1` (centres unmarked) | -10.6 | 5.986 |
| 46 | `COCCNC(=O)c1cc(-n2cccc2)ccc1Cl` | 17.3 | 2.88 |
| 47 | `[H][C@@]12CS(=O)(=O)C[C@]1([H])N(C(=O)c1cnc(C)cn1)CCN2C(=O)C(C)C` | -11.38 | 4.224 |
| 48 | `CCN(C(=O)c1ccc2nnc(C3CCN(C(C)=O)C3)n2c1)C(C)C` (centres unmarked) | 0.06604 | -4.08 |
| 49 | `Cc1ccc(C(CNCC2CC2)N2CCOCC2)s1` (centres unmarked) | 13.83 | -9.711 |
| 50 | `COc1cccc(C(=O)N2CCc3c(nc(N)[nH]c3=O)C2)c1OC` | 12.99 | -4.704 |
| 51 | `O=C(O)C(F)(F)F.O=C(O)C(F)(F)F.[H][C@@]12OCCN(Cc3ccoc3)[C@@]1([H])CC[C@H]2OCCN1CCCC1` | -17.4 | -13.14 |
| 52 | `CCc1n[nH]c(C(=O)N2CCN(c3ccc4ccccc4c3)CC2)c1C` | 12.15 | 12.46 |
| 53 | `O=C(O)C(F)(F)F.[H][C@@]12CCC(=O)N(c3cnn(C)c3)[C@]1([H])CCN2Cc1nccs1` | 25.95 | -19.88 |
| 54 | `CC(C)(C)n1cc(C(=O)N2CCN(Cc3cccnc3)CC2)cn1` | - | -3.381 |
| 55 | `CS(=O)(=O)CCN1CCC(Nc2c(Cl)cccc2C#N)CC1` | 16.22 | -18.19 |
| 56 | `CNC(=O)[C@@H]1C[C@@H](NC(=O)Cc2nonc2C)CN1Cc1sccc1C` | - | -16.14 |
| 57 | `CC(C)CCNC(=O)c1csc(NC2CC2)n1` | 27.3 | 43.35 |
| 58 | `CCc1nc(CN2CCc3c(ncn3C3CC3)C2)cs1` | - | 17.09 |
| 59 | `CCOCC1CN(Cc2cnn(C)c2)Cc2nn(CC3CC3)cc21.O=C(O)C(F)(F)F` (centres unmarked) | -7.19 | 2.131 |
| 60 | `Cc1cc(NC(=O)CN2CCCCC2Cn2nc(C)nc2C)on1` (centres unmarked) | -24.72 | -3.53 |
| 61 | `Cc1c(CN2CCCC(C(=O)c3ccc(C(C)(C)C)cc3)C2)cnn1C` (centres unmarked) | 17.85 | 21.19 |
| 62 | `COCc1nnc(C(=O)N(C)Cc2cnc3ccccn23)o1` | 17.47 | -55.23 |
| 63 | `CN1CCC/C1=N\S(=O)(=O)c1ccc(NC(=O)c2ccsc2)cc1` | - | 10.58 |
| 64 | `CCC(=O)N1CCN(CCn2cccn2)c2ncccc2C1.O=C(O)C(F)(F)F` | -2.557 | 49.07 |
| 65 | `O=C(O)c1cc2c(nc1O)CC(c1cccs1)CC2=O` (centres unmarked) | - | 16.39 |

The last 5 entries again:

Compound,Mtb growth Cornell,Mtb heat-shock
Cc1c(CN2CCCC(C(=O)c3ccc(C(C)(C)C)cc3)C2)cnn1C (centres unmarked),17.85,21.19
COCc1nnc(C(=O)N(C)Cc2cnc3ccccn23)o1,17.47,-55.23
CN1CCC/C1=N\S(=O)(=O)c1ccc(NC(=O)c2ccsc2)cc1,-,10.58
CCC(=O)N1CCN(CCn2cccn2)c2ncccc2C1.O=C(O)C(F)(F)F,-2.557,49.07
O=C(O)c1cc2c(nc1O)CC(c1cccs1)CC2=O (centres unmarked),-,16.39